Values from PubChem BioAssay AID504793 (Drosophila RNAi Screening Center, 2011).
Screen: 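Knock-downs allowing continued mitosis even though DNA is damaged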 (primary screen). System: Drosophila S2R+ cells. Reagent: long dsRNA against Drosophila genes, about 0.25 µg dsRNA per well. Time to read-out: 4 days of dsRNA, then 4 hours of drug before read-out. Challenge: doxorubicin 0.5 µM for 4 hours to cause double-strand breaks, in cells also given a low, harmless dose of dsRNA against nbs to sensitise the assay. Detection: 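Mitotic index as the number of phospho-histone H3-positive cells in each well following doxorubicin, given as raw counts without normalisation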. Reading the numbers: mitotic cells: higher = more cells in mitosis, weaker G2 arrest. Active means: 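Genes are called active only when high mitotic counts were reproduced with independent dsRNAs and mitosis was checked for delay without damage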. Calls: active = confirmed in follow-up tests; inactive = not confirmed.
The screen tested about 23,000 reagents; below is a random part of those with a known target gene and a result. Over the whole deposit, 62 (0.27%) got an active call. 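Calls come from follow-up tests whose scores are not deposited, so confirmed genes may have low counts here; counts are not normalised per plate.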 Raw values are not corrected between plates. A plus sign joins genes that one reagent is predicted to hit.

Knock-down of fz4 [DRSC18780] gave: mitotic cells, replicate 1 = 9; inactive.
After knock-down of Fis1 [DRSC07772] the results were mitotic cells, replicate 1 = 10; inactive.
With knock-down of Cyp304a1 [DRSC16623], the record shows mitotic cells, replicate 1 = 8; inactive.
After knock-down of CG10845 [DRSC14272] the results were mitotic cells, replicate 1 = 14; inactive.
After knock-down of CG30031 + deltaTry + CG30025 + 1 more [DRSC21262], the screen gave mitotic cells, replicate 1 = 6; inactive.
CG4661 [DRSC19910] gave mitotic cells, replicate 1 = 11; inactive.
After knock-down of AGO1 [DRSC05912] the results were mitotic cells, replicate 1 = 4; inactive.
With knock-down of AGO1 [DRSC39159] the results were mitotic cells, replicate 1 = 12; inactive.
Alp11 [DRSC20080] showed mitotic cells, replicate 1 = 14; inactive.
For CG31275 [DRSC16919], the values are mitotic cells, replicate 1 = 3; inactive.
For CG12439 [DRSC02168], the entry reads mitotic cells, replicate 1 = 5; inactive.
For CG9393 [DRSC16486], the values are mitotic cells, replicate 1 = 9; inactive.
pncr008:3L (retired record) [DRSC37877] showed mitotic cells, replicate 1 = 7; inactive.
Against pncr008:3L (retired record) [DRSC39122], the entry reads mitotic cells, replicate 1 = 16; inactive.
For form3 [DRSC10195] the deposit lists mitotic cells, replicate 1 = 4; inactive.
form3 [DRSC10297] gave mitotic cells, replicate 1 = 2; inactive.
With knock-down of form3 [DRSC11024], the screen gave mitotic cells, replicate 1 = 3; inactive.
With knock-down of CG11400 [DRSC06070], the record shows mitotic cells, replicate 1 = 6; inactive.
Knock-down of CG5418 [DRSC02857] resulted in: mitotic cells, replicate 1 = 3; inactive.
With knock-down of CG5418 [DRSC25643], the record shows mitotic cells, replicate 1 = 9; inactive.
IPIP [DRSC02164] gave mitotic cells, replicate 1 = 3; inactive.
Against IPIP [DRSC27480], the values are mitotic cells, replicate 1 = 8; inactive.
Vajk2 [DRSC02540] showed mitotic cells, replicate 1 = 4; inactive.
Depletion of Vajk2 [DRSC25275] gave: mitotic cells, replicate 1 = 3; inactive.
Against CG17159 + CG17162 [DRSC20899] the deposit lists mitotic cells, replicate 1 = 9; inactive.
CG17159 + CG17162 [DRSC20900] gave mitotic cells, replicate 1 = 2; inactive.
For CG4286 [DRSC04459] the deposit lists mitotic cells, replicate 1 = 13; inactive.
CG4286 [DRSC24458] scored mitotic cells, replicate 1 = 6; inactive.
For orb [DRSC23148], the values are mitotic cells, replicate 1 = 15; inactive.
Spn88Ea [DRSC17061] scored mitotic cells, replicate 1 = 5; inactive.
Spn88Ea [DRSC27907] showed mitotic cells, replicate 1 = 11; inactive.
Against Pcl [DRSC07503], the values are mitotic cells, replicate 1 = 5; inactive.
Pcl [DRSC24868] gave mitotic cells, replicate 1 = 1; inactive.
ttm50 [DRSC18587] showed mitotic cells, replicate 1 = 4; inactive.
Against Bfc [DRSC08623], the values are mitotic cells, replicate 1 = 9; inactive.
CG10154 [DRSC09707] scored mitotic cells, replicate 1 = 2; inactive.
With knock-down of CG5787 [DRSC02895], the record shows mitotic cells, replicate 1 = 2; inactive.
CG5787 [DRSC28731] scored mitotic cells, replicate 1 = 4; inactive.
Against Sgs5bis [DRSC16263] the deposit lists mitotic cells, replicate 1 = 3; inactive.
Depletion of Gr66a [DRSC10783] came out at: mitotic cells, replicate 1 = 6; inactive.
eIF3d2 [DRSC15651] scored mitotic cells, replicate 1 = 4; inactive.
Depletion of lncRNA:CR31526 [DRSC21520] gave: mitotic cells, replicate 1 = 9; inactive.
With knock-down of lncRNA:CR31526 [DRSC26871] the results were mitotic cells, replicate 1 = 9; inactive.
